# Assay results: the supplement of paper PMC11732987, “Enantioselective OTUD7B fragment discovery through chemoproteomics screening and high-throughput optimisation” (Communications Chemistry, 2025)
# The list shows a part of the results. The data scatter; read single values as rough.
# How the values were obtained:
# [1] = compound: ClCC(=O)N[C@@H]1CCCc2ccccc12; assay: log2 mean competition ratio of IA-DTB cysteine labelling (DMSO/compound) (log2 ratio); higher = stronger cysteine engagement by compound; details: treatment time: 4 h, cell line lysate: HEK293T
# Protocol: (§1)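 IA-DTB competitive cysteine chemoproteomics in HEK293T RIPA lysate. Lysates were treated with compound 29 or 30 at 50 or 200 µM for 4 h, then IA-DTB (500 µM, 1 h), trypsin-digested, NeutrAvidin-enriched and analysed by diaPASEF. Competition ratio = intensity DMSO / intensity compound (n=4 treated, n=64 DMSO); binding: mean log2 CR ≥ 1 and p ≤ 0.05 plus QC filters. Target is the cysteine site.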
# [2] = compound: ClCC(=O)N[C@H]1CCCc2ccccc12; assay: as above; details: treatment time: 4 h, cell line lysate: HEK293T
# Protocol: as §1
Target,log2 mean competition ratio ([1]; 50 µM),log2 mean competition ratio ([1]; 200 µM),log2 mean competition ratio ([2]; 50 µM),log2 mean competition ratio ([2]; 200 µM)
RBFA C136 (UniProt Q8N0V3),-0.0342,-0.0395,,
RIF1 C1718 (UniProt Q5UIP0),-0.0348,0.0508,,
RCHY1 C136 (UniProt Q96PM5),0.132,-0.254,,
RBBP8 C92 (UniProt Q99708),-0.0604,-0.131,,
RASA1 C828 (UniProt P20936),-0.183,0.222,,
RIOK1 C361 (UniProt Q9BRS2),0.202,-0.226,,
RALGAPA2 C1662 (UniProt Q2PPJ7),-0.00575,-0.0426,,
RFC1 C118 (UniProt P35251),-0.392,-0.174,,
RFC3 C303 (UniProt P40938),-0.0232,0.296,,
RFTN1 C211 (UniProt Q14699),0.00873,-0.221,,
RB1CC1 C783 (UniProt Q8TDY2),0.0552,0.163,,
RIF1 C1692 (UniProt Q5UIP0),-0.0437,0.186,,
RHOQ C144 (UniProt P17081),-0.138,0.157,,
RBM5 C766 (UniProt P52756),0.0713,0.212,,
RIOX2 C19 (UniProt Q8IUF8),0.179,-0.0681,,
RECQL4 C749 (UniProt O94761),0.199,0.331,,
RHBDD3 C208 (UniProt Q9Y3P4),0.000933,0.135,,
RANBP2 C1296 (UniProt P49792),-0.0738,-0.0826,,
RAI14 C935 (UniProt Q9P0K7),0.0044,-0.223,,
RADX C136,-0.116,-0.16,,
RBM20 C1077 (UniProt Q5T481),-0.00215,-0.0386,,
RDH10 C272 (UniProt Q8IZV5),-0.083,0.344,,
RECQL5 C532 (UniProt O94762),-0.329,-0.293,,

Target,log2 mean competition ratio ([1]; 50 µM),log2 mean competition ratio ([1]; 200 µM),log2 mean competition ratio ([2]; 50 µM),log2 mean competition ratio ([2]; 200 µM)
RBM20 C24 (UniProt Q5T481),0.038,0.147,,
RBM25 C132 (UniProt P49756),-0.036,0.249,,
RANBP2 C1196 (UniProt P49792),-0.349,0.305,,
RITA1 C80,0.106,0.418,,
RMI1 C268 (UniProt Q9H9A7),0.162,-0.312,,
RARS2 C576 (UniProt Q5T160),0.0428,0.325,,
RBM26 C294 (UniProt Q5T8P6),-0.0218,0.221,,
RHOT2 C543 (UniProt Q8IXI1),-0.0259,-0.107,,
RANGAP1 C152 (UniProt P46060),-0.0763,-0.0403,,
RBM22 C179 (UniProt Q9NW64),-0.217,0.131,,
RANBP2 C1335 (UniProt P49792),-0.101,0.134,,
RIMOC1 C51,-0.0842,0.177,,
RIF1 C1594 (UniProt Q5UIP0),0.0344,-0.0666,,
RAP1GAP C644 (UniProt P47736),-0.173,0.153,,
RFC2 C255 (UniProt P35250),0.14,0.0336,-0.541,-0.0617
RBL1 C1047 (UniProt P28749),-0.0397,0.233,,
RBM15B C128 (UniProt Q8NDT2),-0.177,-0.277,0.491,-0.142
RFC1 C916 (UniProt P35251),-0.229,0.129,0.0816,0.13
RFC1 C607 (UniProt P35251),0.173,0.389,,
RAPGEF6 C93 (UniProt Q8TEU7),-0.0954,0.346,,
RENBP C249 (UniProt P51606),0.022,-0.194,-0.0389,0.325
RANBP2 C348 (UniProt P49792),0.0506,0.528,,
RIF1 C1865 (UniProt Q5UIP0),-0.11,0.0334,,

Target,log2 mean competition ratio ([1]; 50 µM),log2 mean competition ratio ([1]; 200 µM),log2 mean competition ratio ([2]; 50 µM),log2 mean competition ratio ([2]; 200 µM)
REXO4 C248 (UniProt Q9GZR2),0.0898,-0.0367,,
RANBP17 C765 (UniProt Q9H2T7),0.0378,-0.125,-0.0228,-0.148
RBM28 C71 (UniProt Q9NW13),0.0177,-0.0399,0.36,0.0913
RIC8A C79 (UniProt Q9NPQ8),-0.18,0.421,0.0812,0.454
RANBP2 C707 (UniProt P49792),-0.363,-0.0111,-0.297,-0.0908
RIOK1 C264 (UniProt Q9BRS2),0.0343,-0.0529,,
RBM47 C273,-0.322,-0.182,-0.167,-0.233
RAI14 C584 (UniProt Q9P0K7),-0.0408,-0.276,,
RBM12B C204 (UniProt Q8IXT5),-0.0101,0.0668,,
RBBP6 C1566 (UniProt Q7Z6E9),0.059,0.0194,,
RANBP6 C1065 (UniProt O60518),-0.296,0.0017,-0.221,0.0243
RANBP6 C31 (UniProt O60518),0.23,0.226,,
RAP1GDS1 C350 (UniProt P52306),-0.0884,-0.0993,,
RIPOR1 C925 (UniProt Q6ZS17),0.609,0.562,,
RANBP6 C980 (UniProt O60518),-0.227,-0.0464,-0.113,0.0225
RB1CC1 C925 (UniProt Q8TDY2),-0.0309,-0.256,,-0.224
RBBP8 C692 (UniProt Q99708),-0.498,-0.0191,,
RANBP3 C228 (UniProt Q9H6Z4),-0.223,0.14,,
RIC8A C341 (UniProt Q9NPQ8),0.22,0.285,-0.176,0.227
RCC1L C329 (UniProt Q96I51),0.306,0.032,0.323,-0.127
RAI1 C1015 (UniProt Q7Z5J4),0.00747,0.376,,
RBX1 C94 (UniProt P62877),-0.293,0.0633,,
RASSF4 C236,-0.0884,0.0378,,

Target,log2 mean competition ratio ([1]; 50 µM),log2 mean competition ratio ([1]; 200 µM),log2 mean competition ratio ([2]; 50 µM),log2 mean competition ratio ([2]; 200 µM)
RANBP2 C2791 (UniProt P49792),-0.395,0.297,,
RBL2 C635 (UniProt Q08999),0.0451,-0.135,,
RMND5A C4 (UniProt Q9H871),-0.165,-0.159,,
RAPGEF6 C1413 (UniProt Q8TEU7),0.0656,0.0576,,
RECQL C471 (UniProt P46063),0.152,0.11,0.356,-0.0222
RANGAP1 C82 (UniProt P46060),0.0344,0.497,,
RB1CC1 C853 (UniProt Q8TDY2),0.133,-0.0435,0.272,-0.198
RBM4 C162 (UniProt Q9BWF3),-0.0855,-0.0239,-0.273,-0.0456
RGL1 C289,-0.0344,0.382,-0.467,-0.476
RICTOR C1631 (UniProt Q6R327),0.165,0.342,-0.451,0.196
RANBP2 C220 (UniProt P49792),0.229,-0.0993,0.832,-0.185
RBM25 C795 (UniProt P49756),-0.164,-0.271,0.553,-0.489
RIPOR1 C1016 (UniProt Q6ZS17),-0.58,-0.179,0.197,0.145
RAI1 C1729 (UniProt Q7Z5J4),0.184,0.141,-0.225,0.13
RAPGEF1 C328 (UniProt Q13905),-0.253,0.132,-0.0707,0.0832
RING1 C279 (UniProt Q06587),0.0535,-0.0793,-0.0511,-0.0627
RFWD3 C379 (UniProt Q6PCD5),-0.057,0.363,-0.024,0.416
RANBP2 C3100 (UniProt P49792),-0.226,-0.0818,-0.209,0.0372
RFXAP C185 (UniProt O00287),0.0545,-0.119,0.0893,-0.167
RASSF7 C122 (UniProt Q02833),-0.0363,0.0736,0.0367,0.0933
RBM4B C89 (UniProt Q9BQ04),-0.0553,0.0821,-0.57,-0.0781
RNASEH1 C46 (UniProt O60930),0.0423,0.164,-0.0903,-0.0589
RFK C8 (UniProt Q969G6),0.156,-0.0594,0.207,-0.195

# Taken from above.
# log2 mean competition ratio ([1]; 200 µM) with RAPGEF6 C1413 (UniProt Q8TEU7) is entered as 0.0576
# log2 mean competition ratio ([2]; 200 µM) with RFWD3 C379 (UniProt Q6PCD5) is entered as 0.416
# log2 mean competition ratio ([2]; 50 µM) with RING1 C279 (UniProt Q06587) is entered as -0.0511
# log2 mean competition ratio ([2]; 200 µM) with RB1CC1 C853 (UniProt Q8TDY2) is entered as -0.198

# (next part)

Target,log2 mean competition ratio ([1]; 50 µM),log2 mean competition ratio ([1]; 200 µM),log2 mean competition ratio ([2]; 50 µM),log2 mean competition ratio ([2]; 200 µM)
RBM28 C97 (UniProt Q9NW13),-0.0506,0.293,-0.428,-0.0815
RFC1 C665 (UniProt P35251),0.057,0.248,0.22,-0.192
RBFA C315 (UniProt Q8N0V3),-0.203,-0.342,-0.165,0.143
RAPGEF1 C817 (UniProt Q13905),0.186,0.178,0.0862,0.19
RECQL C606 (UniProt P46063),0.238,0.157,0.185,-0.301
RANBP6 C792 (UniProt O60518),0.0604,0.193,-0.212,0.191
RANBP2 C1243 (UniProt P49792),-0.276,-0.0787,-0.293,-0.167
RALGAPB C242 (UniProt Q86X10),0.195,-0.349,0.871,-0.172
RFC4 C48 (UniProt P35249),-0.135,0.366,0.131,0.369
RAP1GDS1 C144 (UniProt P52306),-0.174,-0.196,-0.0141,-0.0666
RLF C1609 (UniProt Q13129),-0.19,0.16,-0.349,0.012
RANBP10 C501 (UniProt Q6VN20),0.653,0.236,0.772,0.36
RCC2 C428 (UniProt Q9P258),-0.0581,-0.302,0.0851,-0.0808
RANBP2 C2982 (UniProt P49792),0.0105,-0.403,0.0929,-0.495
RB1CC1 C1236 (UniProt Q8TDY2),0.298,-0.124,-0.3,-0.126
RB1 C666 (UniProt P06400),-0.0834,-0.202,-0.124,-0.227
RB1CC1 C946 (UniProt Q8TDY2),-0.0464,-0.253,-0.193,-0.376
RBM20 C1024 (UniProt Q5T481),0.192,0.284,-0.164,0.0603
RAVER2 C82 (UniProt Q9HCJ3),-0.304,-0.0207,-0.251,-0.0348

# Looked up one by one from above:
Target,log2 mean competition ratio ([1]; 50 µM),log2 mean competition ratio ([1]; 200 µM),log2 mean competition ratio ([2]; 50 µM),log2 mean competition ratio ([2]; 200 µM)
RFC1 C665 (UniProt P35251),0.057,0.248,0.22,-0.192
RANBP6 C792 (UniProt O60518),0.0604,0.193,-0.212,0.191
